Laboratory results reported in PMC8417012.

Chains of the proteins cited; added tags and fusions are not shown. Lines headed by an entry give the natural chain unless they say otherwise; changes in a name come on top.
UniProt Q9LDW5: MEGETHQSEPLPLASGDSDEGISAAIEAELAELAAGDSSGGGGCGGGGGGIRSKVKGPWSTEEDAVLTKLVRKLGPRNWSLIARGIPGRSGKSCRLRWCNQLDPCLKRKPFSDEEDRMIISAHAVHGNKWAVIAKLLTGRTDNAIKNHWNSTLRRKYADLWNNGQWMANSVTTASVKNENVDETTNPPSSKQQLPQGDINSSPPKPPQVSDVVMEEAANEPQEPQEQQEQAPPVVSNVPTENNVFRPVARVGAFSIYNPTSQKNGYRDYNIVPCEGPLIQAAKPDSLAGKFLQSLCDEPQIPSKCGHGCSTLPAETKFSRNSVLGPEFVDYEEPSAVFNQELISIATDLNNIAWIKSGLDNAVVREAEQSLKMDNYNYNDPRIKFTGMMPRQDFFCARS

Assays:
[1] = target: His:BPM1 (Arabidopsis thaliana) (UniProt Q8L765); assay: pull-down; His:BPM proteins kept on Ni-NTA agarose beads, incubated with eluted GST-tagged proteins in 0.1 M Tris pH 7.5, 150 mM NaCl, 0.5% NP-40, PMSF, 2 h at 4°C, three washes; blots with anti-GST and anti-His; both purified
[2] = target: His:BPM5 (Arabidopsis thaliana) (UniProt Q1EBV6); assay: as above
[3] = target: His:BPM3 (Arabidopsis thaliana) (UniProt O22286); assay: as above
[4] = target: T1, BPM6 (yeast two-hybrid fusion) (Arabidopsis thaliana) (UniProt A1L4W5); assay: two-hybrid; yeast; bait vector pBTM112-D9, prey plasmid pACT2; growth on SDIV medium without uracil and His; spots photographed 1 week after plating; which partner was bait is not stated
T1 sequence: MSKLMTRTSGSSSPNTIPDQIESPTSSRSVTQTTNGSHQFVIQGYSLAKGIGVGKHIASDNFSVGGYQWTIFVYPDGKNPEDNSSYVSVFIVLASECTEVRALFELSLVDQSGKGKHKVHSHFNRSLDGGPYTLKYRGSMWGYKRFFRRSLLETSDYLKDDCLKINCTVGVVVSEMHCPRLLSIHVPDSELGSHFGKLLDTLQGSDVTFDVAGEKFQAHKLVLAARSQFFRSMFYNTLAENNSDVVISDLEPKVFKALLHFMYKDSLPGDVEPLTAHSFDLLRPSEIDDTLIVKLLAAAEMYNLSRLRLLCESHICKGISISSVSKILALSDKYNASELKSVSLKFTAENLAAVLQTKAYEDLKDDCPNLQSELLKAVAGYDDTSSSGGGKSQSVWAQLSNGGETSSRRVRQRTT

[5] = target: T2, BPM3 (yeast two-hybrid fusion) (Arabidopsis thaliana) (UniProt O22286); assay: as above
T2 sequence: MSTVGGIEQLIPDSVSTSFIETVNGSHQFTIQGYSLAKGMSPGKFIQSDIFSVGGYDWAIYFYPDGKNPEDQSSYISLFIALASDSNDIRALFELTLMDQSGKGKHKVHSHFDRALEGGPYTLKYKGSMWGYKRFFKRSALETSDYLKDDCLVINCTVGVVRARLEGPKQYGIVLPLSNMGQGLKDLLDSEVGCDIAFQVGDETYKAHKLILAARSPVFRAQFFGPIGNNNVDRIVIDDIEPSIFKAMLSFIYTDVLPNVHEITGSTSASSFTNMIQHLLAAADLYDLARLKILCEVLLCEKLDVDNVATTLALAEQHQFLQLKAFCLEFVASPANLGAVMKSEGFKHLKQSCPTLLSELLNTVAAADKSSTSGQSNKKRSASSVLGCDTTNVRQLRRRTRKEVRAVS

[6] = target: T3, BPM5 (yeast two-hybrid fusion) (Arabidopsis thaliana) (UniProt Q1EBV6); assay: as above
T3 sequence: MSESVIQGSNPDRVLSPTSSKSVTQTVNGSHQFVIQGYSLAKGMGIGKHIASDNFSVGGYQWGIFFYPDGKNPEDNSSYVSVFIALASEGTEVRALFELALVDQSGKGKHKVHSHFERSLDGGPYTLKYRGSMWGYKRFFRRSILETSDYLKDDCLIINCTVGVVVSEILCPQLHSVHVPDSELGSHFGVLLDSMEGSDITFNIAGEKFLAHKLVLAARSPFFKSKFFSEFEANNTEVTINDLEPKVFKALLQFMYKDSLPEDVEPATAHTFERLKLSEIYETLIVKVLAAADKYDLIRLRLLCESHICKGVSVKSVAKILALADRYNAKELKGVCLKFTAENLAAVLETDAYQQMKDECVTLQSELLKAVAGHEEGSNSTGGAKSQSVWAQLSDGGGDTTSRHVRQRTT

[7] = target: T4, BPM4 (yeast two-hybrid fusion) (Arabidopsis thaliana) (UniProt Q9SRV1); assay: as above
T4 sequence: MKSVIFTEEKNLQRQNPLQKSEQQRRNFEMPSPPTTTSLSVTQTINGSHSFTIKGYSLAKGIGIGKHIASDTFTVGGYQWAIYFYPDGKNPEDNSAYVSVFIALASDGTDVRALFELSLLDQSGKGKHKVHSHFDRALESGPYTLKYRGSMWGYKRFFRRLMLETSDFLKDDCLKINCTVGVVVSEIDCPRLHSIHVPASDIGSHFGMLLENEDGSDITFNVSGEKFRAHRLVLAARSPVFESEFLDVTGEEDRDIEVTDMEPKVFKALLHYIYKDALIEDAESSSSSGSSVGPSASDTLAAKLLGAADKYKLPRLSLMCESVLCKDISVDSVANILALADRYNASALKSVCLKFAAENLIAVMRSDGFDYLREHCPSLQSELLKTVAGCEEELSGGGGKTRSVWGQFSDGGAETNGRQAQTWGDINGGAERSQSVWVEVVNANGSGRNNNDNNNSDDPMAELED

[8] = target: T5, BPM2 (yeast two-hybrid fusion) (Arabidopsis thaliana) (UniProt Q9M8J9); assay: as above
T5 sequence: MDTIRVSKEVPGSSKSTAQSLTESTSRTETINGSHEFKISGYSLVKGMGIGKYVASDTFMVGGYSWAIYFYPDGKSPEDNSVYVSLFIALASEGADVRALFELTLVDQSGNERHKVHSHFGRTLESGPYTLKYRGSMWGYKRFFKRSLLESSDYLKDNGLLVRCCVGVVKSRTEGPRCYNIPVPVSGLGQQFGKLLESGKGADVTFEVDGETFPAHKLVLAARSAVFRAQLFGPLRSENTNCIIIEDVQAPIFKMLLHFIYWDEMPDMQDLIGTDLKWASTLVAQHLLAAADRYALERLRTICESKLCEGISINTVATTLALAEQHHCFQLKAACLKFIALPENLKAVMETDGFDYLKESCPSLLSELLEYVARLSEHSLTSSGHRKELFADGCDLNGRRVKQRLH

[9] = target: T6, BPM1 (yeast two-hybrid fusion) (Arabidopsis thaliana) (UniProt Q8L765); assay: as above
T6 sequence: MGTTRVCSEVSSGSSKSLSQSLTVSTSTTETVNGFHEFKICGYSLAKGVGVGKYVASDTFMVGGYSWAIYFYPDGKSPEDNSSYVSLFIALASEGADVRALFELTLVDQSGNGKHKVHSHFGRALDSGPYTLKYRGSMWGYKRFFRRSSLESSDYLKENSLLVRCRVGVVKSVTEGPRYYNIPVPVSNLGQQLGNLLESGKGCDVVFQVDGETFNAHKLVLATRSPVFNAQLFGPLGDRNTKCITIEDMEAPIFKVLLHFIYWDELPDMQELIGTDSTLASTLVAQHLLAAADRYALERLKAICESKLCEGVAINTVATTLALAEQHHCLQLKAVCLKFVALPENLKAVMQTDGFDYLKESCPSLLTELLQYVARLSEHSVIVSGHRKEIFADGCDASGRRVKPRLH

Measured: binding

GST:MYB109 (from UniProt Q9LDW5)
binds: [1] | [2] | [3]

MYB109 (yeast two-hybrid fusion) (from UniProt Q9LDW5)
not listed: [1] | [2] | [3]
binds: all other assays above

These are yes or no findings as the source states them, for the method shown. Binding can be weak; no strength is given. For part of these data: Where a sequence is shown, tags or fusion partners need not be part of it.
